Experimental data from article PMC4737761.
No constants are given. Whether binding was seen depends on the method and setting. Some entries that bind do so weakly or less than the wild type.

Molecular target: T1, Ffh, the protein of the signal recognition particle (SRP) (E. coli), P0AGD7
T1 chain: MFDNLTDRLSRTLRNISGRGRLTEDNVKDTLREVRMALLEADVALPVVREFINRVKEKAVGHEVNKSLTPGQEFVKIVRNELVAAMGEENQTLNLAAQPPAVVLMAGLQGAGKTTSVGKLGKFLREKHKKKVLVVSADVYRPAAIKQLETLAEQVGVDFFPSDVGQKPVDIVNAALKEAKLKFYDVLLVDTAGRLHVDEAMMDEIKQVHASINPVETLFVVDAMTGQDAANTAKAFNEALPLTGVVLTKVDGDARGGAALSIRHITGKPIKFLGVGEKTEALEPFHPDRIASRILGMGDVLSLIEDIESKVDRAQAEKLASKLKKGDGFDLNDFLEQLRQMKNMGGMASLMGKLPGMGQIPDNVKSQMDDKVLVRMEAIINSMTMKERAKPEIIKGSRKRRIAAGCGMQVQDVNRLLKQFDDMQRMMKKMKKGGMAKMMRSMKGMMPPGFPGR
Experiment: cryo-EM structure; RNC-SRP-SR: RNC incubated with a 1:3 molar excess of SRP and SR, 37 °C 30 min then 4 °C 30 min, 250 nM; same buffer with 2 mM GMPNP; 'early' and 'closed' states, 3.8 and 3.7 Å; both purified
Details: remark: other sources report otherwise

binding: binds
B1: FtsY, the SRP receptor (SR), P10121 1-497 (receptor)
chain: MAKEKKRGFFSWLGFGQKEQTPEKETEVQNEQPVVEEIVQAQEPVKASEQAVEEQPQAHTEAEAETFAADVVEVTEQVAESEKAQPEAEVVAQPEPVVEETPEPVAIEREELPLPEDVNAEAVSPEEWQAEAETVEIVEAAEEEAAKEEITDEELETALAAEAAEEAVMVVPPAEEEQPVEEIAQEQEKPTKEGFFARLKRSLLKTKENLGSGFISLFRGKKIDDDLFEELEEQLLIADVGVETTRKIITNLTEGASRKQLRDAEALYGLLKEEMGEILAKVDEPLNVEGKAPFVILMVGVNGVGKTTTIGKLARQFEQQGKSVMLAAGDTFRAAAVEQLQVWGQRNNIPVIAQHTGADSASVIFDAIQAAKARNIDVLIADTAGRLQNKSHLMEELKKIVRVMKKLDVEAPHEVMLTIDASTGQNAVSQAKLFHEAVGLTGITLTKLDGTAKGGVIFSVADQFGIPIRYIGVGERIEDLRPFKADDFIEALFARED
